Reference: the supplement of paper PMC10849652
This is one part of the list.

By UniProt entry, the sequences of proteins in these tests, tags left out. Where a name states a change or a piece, a line headed by the entry shows the natural chain unless it says otherwise.
UniProt Q96DI7: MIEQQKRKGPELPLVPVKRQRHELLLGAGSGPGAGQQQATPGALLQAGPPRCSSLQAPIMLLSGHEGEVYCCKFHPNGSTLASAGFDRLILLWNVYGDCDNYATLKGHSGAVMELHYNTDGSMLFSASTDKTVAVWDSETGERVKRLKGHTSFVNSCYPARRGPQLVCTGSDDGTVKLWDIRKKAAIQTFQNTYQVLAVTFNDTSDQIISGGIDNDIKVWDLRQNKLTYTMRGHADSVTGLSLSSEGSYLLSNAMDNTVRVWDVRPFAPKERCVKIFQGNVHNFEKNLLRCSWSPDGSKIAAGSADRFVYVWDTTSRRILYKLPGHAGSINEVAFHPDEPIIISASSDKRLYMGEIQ
UniProt Q9UQE7: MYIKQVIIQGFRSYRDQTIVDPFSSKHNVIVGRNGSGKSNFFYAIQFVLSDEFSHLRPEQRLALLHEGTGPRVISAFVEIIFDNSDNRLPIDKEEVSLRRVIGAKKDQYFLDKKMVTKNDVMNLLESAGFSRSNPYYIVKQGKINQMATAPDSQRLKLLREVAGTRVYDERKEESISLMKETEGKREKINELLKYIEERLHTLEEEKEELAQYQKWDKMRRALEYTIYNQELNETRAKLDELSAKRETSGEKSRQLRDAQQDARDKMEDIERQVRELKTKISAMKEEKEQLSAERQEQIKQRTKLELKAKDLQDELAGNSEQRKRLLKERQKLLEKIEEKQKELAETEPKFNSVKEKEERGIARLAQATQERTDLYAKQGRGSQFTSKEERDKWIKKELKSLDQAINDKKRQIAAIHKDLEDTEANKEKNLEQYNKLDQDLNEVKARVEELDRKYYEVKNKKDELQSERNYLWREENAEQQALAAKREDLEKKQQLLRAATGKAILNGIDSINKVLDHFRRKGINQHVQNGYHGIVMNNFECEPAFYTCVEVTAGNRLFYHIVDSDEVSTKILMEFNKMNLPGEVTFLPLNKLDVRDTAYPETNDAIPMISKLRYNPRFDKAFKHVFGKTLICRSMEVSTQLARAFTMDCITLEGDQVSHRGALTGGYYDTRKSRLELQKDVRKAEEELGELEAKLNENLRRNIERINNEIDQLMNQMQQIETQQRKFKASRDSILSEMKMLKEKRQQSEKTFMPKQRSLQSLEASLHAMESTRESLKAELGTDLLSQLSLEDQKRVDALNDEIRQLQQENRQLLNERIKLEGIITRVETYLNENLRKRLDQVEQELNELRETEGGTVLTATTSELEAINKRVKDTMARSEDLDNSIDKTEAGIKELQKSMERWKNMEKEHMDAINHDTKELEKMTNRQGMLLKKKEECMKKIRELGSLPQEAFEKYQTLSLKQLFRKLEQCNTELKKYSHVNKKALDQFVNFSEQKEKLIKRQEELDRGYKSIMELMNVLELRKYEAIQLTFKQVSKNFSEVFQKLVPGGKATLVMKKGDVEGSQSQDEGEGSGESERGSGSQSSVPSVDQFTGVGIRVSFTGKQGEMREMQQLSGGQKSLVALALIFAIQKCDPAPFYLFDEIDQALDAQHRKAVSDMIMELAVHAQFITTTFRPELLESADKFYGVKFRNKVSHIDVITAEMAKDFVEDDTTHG
UniProt O00161: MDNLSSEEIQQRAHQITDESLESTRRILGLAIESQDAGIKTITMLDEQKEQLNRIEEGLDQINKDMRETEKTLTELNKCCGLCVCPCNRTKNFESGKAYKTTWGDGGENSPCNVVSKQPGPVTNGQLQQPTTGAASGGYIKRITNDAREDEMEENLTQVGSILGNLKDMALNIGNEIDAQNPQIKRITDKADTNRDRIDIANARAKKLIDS
UniProt O60271: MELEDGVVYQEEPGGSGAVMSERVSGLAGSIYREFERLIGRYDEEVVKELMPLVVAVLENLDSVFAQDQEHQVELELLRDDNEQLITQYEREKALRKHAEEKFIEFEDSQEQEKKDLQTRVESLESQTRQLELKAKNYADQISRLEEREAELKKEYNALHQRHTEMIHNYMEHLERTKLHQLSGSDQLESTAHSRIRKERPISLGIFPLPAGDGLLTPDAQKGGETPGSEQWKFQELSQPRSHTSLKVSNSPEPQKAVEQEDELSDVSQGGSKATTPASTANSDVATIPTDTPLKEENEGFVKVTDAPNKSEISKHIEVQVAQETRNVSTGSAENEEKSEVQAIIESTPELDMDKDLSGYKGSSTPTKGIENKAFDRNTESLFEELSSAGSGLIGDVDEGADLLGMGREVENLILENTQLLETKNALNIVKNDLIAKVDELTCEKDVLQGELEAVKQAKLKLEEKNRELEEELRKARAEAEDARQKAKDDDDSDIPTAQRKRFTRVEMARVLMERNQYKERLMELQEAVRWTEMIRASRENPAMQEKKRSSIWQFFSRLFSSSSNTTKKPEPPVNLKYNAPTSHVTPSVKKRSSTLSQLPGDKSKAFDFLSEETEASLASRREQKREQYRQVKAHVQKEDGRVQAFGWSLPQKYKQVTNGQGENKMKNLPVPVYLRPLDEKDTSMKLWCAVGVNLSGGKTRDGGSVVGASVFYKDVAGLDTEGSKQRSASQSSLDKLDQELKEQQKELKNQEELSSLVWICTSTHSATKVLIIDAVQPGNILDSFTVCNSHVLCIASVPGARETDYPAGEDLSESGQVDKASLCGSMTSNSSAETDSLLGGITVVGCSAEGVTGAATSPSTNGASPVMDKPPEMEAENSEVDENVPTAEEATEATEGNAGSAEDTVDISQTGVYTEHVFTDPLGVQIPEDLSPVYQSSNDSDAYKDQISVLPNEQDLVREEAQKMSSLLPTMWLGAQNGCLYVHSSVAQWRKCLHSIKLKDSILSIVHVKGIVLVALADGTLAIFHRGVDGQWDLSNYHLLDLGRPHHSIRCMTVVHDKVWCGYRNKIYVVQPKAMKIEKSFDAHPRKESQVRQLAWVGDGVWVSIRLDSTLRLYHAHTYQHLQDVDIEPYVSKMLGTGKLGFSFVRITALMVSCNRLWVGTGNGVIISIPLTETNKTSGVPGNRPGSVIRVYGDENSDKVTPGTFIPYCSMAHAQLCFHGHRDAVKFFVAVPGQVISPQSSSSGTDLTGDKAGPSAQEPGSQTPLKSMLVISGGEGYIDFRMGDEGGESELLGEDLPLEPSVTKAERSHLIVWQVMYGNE
UniProt P18583: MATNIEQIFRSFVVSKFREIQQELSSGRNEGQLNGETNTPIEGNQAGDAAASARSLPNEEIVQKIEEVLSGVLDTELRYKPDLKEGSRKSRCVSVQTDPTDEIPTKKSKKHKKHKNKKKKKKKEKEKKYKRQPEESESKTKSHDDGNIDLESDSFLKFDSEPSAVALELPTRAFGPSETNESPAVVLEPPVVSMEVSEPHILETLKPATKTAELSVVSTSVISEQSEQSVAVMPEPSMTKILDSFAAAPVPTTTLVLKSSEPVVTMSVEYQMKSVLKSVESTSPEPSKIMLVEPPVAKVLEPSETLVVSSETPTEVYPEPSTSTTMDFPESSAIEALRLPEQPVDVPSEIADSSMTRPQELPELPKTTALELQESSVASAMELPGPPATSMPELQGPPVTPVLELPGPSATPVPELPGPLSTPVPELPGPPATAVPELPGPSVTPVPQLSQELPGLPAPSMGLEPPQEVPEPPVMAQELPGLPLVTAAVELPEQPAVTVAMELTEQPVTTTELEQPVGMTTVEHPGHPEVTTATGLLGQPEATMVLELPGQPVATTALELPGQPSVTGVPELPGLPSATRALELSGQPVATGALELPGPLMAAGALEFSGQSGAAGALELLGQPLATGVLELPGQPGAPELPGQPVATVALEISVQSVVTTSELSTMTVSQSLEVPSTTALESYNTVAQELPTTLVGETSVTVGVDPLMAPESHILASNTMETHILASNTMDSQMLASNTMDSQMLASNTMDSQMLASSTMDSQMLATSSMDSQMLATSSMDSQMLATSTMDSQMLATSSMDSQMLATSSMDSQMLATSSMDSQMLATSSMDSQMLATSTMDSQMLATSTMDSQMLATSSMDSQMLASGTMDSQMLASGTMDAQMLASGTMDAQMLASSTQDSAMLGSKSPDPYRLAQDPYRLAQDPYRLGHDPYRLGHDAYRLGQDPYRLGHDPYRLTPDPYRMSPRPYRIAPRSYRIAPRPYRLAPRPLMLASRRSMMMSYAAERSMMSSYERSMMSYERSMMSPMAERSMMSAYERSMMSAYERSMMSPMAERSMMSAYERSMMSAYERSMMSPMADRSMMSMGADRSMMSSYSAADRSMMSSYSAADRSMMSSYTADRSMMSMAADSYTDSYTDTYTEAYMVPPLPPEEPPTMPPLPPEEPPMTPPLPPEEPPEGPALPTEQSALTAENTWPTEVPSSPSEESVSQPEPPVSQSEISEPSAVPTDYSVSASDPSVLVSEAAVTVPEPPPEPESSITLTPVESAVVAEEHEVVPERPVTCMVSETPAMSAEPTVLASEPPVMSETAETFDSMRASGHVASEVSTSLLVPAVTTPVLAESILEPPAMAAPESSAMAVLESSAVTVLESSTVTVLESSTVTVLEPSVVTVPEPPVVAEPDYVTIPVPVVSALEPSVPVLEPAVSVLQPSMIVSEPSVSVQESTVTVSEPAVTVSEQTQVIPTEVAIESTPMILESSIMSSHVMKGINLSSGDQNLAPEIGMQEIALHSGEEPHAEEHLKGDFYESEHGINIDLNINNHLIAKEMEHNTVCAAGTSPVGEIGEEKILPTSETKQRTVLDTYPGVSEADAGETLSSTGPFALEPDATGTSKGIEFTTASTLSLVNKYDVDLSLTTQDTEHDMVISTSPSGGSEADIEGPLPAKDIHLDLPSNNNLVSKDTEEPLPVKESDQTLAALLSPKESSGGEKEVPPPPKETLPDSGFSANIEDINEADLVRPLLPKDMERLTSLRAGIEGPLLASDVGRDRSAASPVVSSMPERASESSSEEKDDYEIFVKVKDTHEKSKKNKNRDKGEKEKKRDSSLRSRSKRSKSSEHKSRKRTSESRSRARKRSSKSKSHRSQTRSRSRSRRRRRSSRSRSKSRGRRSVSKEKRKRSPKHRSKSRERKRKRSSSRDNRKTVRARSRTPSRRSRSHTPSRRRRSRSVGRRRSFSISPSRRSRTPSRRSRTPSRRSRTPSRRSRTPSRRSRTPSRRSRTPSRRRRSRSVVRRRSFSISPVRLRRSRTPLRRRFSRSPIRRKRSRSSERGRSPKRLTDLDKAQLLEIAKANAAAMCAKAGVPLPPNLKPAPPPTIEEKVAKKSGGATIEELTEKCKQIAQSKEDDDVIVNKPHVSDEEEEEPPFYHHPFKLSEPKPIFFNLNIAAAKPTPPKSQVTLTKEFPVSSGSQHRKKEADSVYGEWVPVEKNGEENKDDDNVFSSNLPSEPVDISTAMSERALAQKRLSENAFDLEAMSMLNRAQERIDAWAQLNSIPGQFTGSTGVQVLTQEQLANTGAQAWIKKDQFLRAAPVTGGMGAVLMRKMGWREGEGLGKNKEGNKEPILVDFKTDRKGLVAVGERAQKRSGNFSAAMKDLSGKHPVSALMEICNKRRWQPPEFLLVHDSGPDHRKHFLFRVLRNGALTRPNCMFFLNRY
UniProt Q13573: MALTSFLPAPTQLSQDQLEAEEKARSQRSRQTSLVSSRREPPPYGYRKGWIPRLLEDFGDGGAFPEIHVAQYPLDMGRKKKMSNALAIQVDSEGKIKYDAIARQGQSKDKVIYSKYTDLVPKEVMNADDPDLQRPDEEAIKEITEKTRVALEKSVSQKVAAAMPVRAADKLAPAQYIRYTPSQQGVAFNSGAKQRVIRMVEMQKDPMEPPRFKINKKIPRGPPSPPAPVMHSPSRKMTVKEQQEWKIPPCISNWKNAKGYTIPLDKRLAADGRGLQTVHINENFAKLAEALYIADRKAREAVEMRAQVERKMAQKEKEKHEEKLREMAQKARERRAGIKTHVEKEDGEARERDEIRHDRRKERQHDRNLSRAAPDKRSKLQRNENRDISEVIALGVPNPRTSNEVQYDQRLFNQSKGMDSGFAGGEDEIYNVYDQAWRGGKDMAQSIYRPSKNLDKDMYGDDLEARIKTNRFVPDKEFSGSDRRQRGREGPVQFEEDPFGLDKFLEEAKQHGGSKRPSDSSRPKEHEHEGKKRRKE

Legend:
Assay in all cases: log2 fold change, soluble protein after heating vs DMSO (PISA); higher = thermal stabilisation; K562 lysate, 10 uM; active = over 0.2 and 3.5 SD of the protein, either way, in both replicates (recomputed)
[1] = compound: C=CC(=O)N1CCC[C@@H](n2nc(-c3ccc(Oc4ccccc4)cc3)c3c(N)ncnc32)C1 [ibrutinib]
Method in brief: (§1)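 Dounce homogenisation of K562 pellets in PBS pH 7.4 with 1 mM MgCl2 produced a crude extract, used at 1 mg/mL protein. Exposure to 10 μM compound lasted 30 min, and aliquots were then heated for 3 min across 48°C-58°C, pooled and brought to 0.5% NP-40 at 4°C. The supernatant after 21,000xg for 90 min was quantified by TMTpro 16plex LC-MS/MS with channel sums equalised. Duplicate values are given as log-two fold change in thermal stability relative to solvent controls.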

[2] = compound: CC(=O)c1cnc2ccc(-c3cc(Cl)c(O)c(Cl)c3)nc2c1N[C@H]1CC[C@H](CN(C)C)CC1
Method in brief: as §1

[3] = compound: CC(C)(C)Cn1c(N)nc2ccc(-c3[nH]c(C(C)(C)C)nc3-c3ccc(F)cc3)nc21 [ralimetinib]
Method in brief: as §1

[4] = compound: CC(C)(O)CC(=O)NCCn1ccc2ncnc(Nc3ccc(Oc4cccc(C(F)(F)F)c4)c(Cl)c3)c21
Method in brief: as §1

[5] = compound: CC(C)C1=C2N=C(C=C(N2N=C1)NCC3=CC=CC=C3)NCCCCCCN
Method in brief: as §1

[6] = compound: CC1=C(C(CC(=O)N1)C2=CC=C(C=C2)C(F)(F)F)C(=O)NC3=C(C=C4C(=C3)C=NN4)F
Method in brief: as §1

[7] = compound: CC1=C(C2=C(C=C1)C(=O)C3=CC=CC=C3N2CCCN)C
Method in brief: as §1

[8] = compound: CC1=C(C=C(C=C1)NC(=O)C2=CC(=CC=C2)C(C)(C)C#N)NC3=CC4=C(C=C3)N=CN(C4=O)C
Method in brief: as §1

[9] = compound: CC1=C(C=C(C=C1)NC(=O)C2=CC(=CC=C2)N(C)C)NC(=O)C3=CC=C(C=C3)O
Method in brief: as §1

[10] = compound: CC1=CC=C(C=C1)SC2=C3C=C(SC3=CN=C2)C(=O)N
Method in brief: as §1

[11] = compound: CCCS(=O)(=O)Nc1ccc(F)c(C(=O)c2c[nH]c3ncc(-c4ccc(Cl)cc4)cc23)c1F [vemurafenib]
Method in brief: as §1

[12] = compound: CCCS(=O)(=O)Nc1ccc(F)c(C(=O)c2c[nH]c3ncc(Cl)cc23)c1F
Method in brief: as §1

[13] = compound: CCN(CCCOc1ccc2c(Nc3cc(CC(=O)Nc4cccc(F)c4)[nH]n3)ncnc2c1)CCOP(=O)(O)O [barasertib]
Method in brief: as §1

[14] = compound: CC[C@@H]1C(=O)N(C)c2cnc(Nc3ccc(C(=O)NC4CCN(C)CC4)cc3OC)nc2N1C1CCCC1
Method in brief: as §1

[15] = compound: CC[C@@H]1C(=O)N(C)c2cnc(Nc3ccc(C(=O)N[C@H]4CC[C@H](N5CCN(CC6CC6)CC5)CC4)cc3OC)nc2N1C(C)C [volasertib]
Method in brief: as §1

[16] = compound: CCn1c(C(=O)N(C2CC2)C2CC2)cc2c3c(ncn3C)c(Nc3cc(C)n(C)n3)nc21
Method in brief: as §1

[17] = compound: CCn1cc(-c2ccnc3[nH]c(-c4cccc(CN(C)C)c4)cc23)c(-c2ccc(NC(=O)N(C)C)cc2)n1
Method in brief: as §1

[18] = compound: CN1CCC(CNc2ccc3ncc(-c4cccc(OC(F)(F)F)c4)n3n2)CC1
Method in brief: as §1

[19] = compound: CN1CCN(CCOc2cc(OC3CCOCC3)c3c(Nc4c(Cl)ccc5c4OCO5)ncnc3c2)CC1 [saracatinib]
Method in brief: as §1

[20] = compound: CN1CCN(c2nc(C3=C(c4c[nH]c5ccccc45)C(=O)NC3=O)c3ccccc3n2)CC1 [sotrastaurin]
Method in brief: as §1

| Target | log2 fold change [1] | log2 fold change [2] | log2 fold change [3] | log2 fold change [4] | log2 fold change [5] | log2 fold change [6] | log2 fold change [7] | log2 fold change [8] | log2 fold change [9] | log2 fold change [10] | log2 fold change [11] | log2 fold change [12] | log2 fold change [13] | log2 fold change [14] | log2 fold change [15] | log2 fold change [16] | log2 fold change [17] | log2 fold change [18] | log2 fold change [19] | log2 fold change [20] |
| --- | --- | --- | --- | --- | --- | --- | --- | --- | --- | --- | --- | --- | --- | --- | --- | --- | --- | --- | --- | --- |
| SNRNP40 (UniProt Q96DI7) | inactive: -0.008 | inactive: 0.026 | inactive: -0.03 | inactive: -0.047 | inactive: -0.02 | inactive: 0.042 | active: 0.332 | inactive: 0.02 | inactive: 0.069 | inactive: 0.029 | inactive: -0.032 | inactive: 0.019 | inactive: -0.06 | inactive: -0.001 | inactive: -0.024 | inactive: -0.033 | inactive: -0.115 | inactive: 0.058 | inactive: 0.01 | inactive: -0.013 |
| SMC3 (UniProt Q9UQE7) | inactive: 0.002 | inactive: -0.001 | inactive: -0.023 | inactive: 0.003 | inactive: -0.002 | inactive: -0.004 | inactive: 0.01 | inactive: -0.014 | inactive: 0.011 | inactive: 0.01 | inactive: -0.018 | inactive: 0.004 | inactive: -0.004 | inactive: 0.008 | inactive: -0.013 | inactive: 0.003 | inactive: 0.041 | inactive: -0.018 | inactive: -0.011 | inactive: -0.016 |
| SNAP23 (UniProt O00161) | inactive: 0.021 | inactive: -0.003 | inactive: -0.01 | inactive: 0.01 | inactive: -0.04 | inactive: -0.015 | inactive: 0.045 | inactive: 0.015 | inactive: -0.013 | inactive: 0.011 | inactive: 0.013 | inactive: -0.025 | inactive: 0.041 | inactive: -0.009 | inactive: 0.034 | inactive: 0.033 | inactive: 0.025 | inactive: 0.014 | inactive: -0.011 | inactive: -0.001 |
| SPAG9 (UniProt O60271) | inactive: 0.008 | inactive: -0.004 | inactive: -0.007 | inactive: -0.029 | inactive: -0.022 | inactive: -0.016 | inactive: -0.027 | inactive: 0.023 | inactive: 0.016 | inactive: -0.015 | inactive: 0.008 | inactive: 0.016 | inactive: -0.016 | inactive: 0.049 | inactive: 0.027 | inactive: -0.016 | inactive: -0.043 | inactive: 0.047 | inactive: -0.029 | inactive: 0.001 |
| SON isoform 9 (UniProt P18583) | inactive: 0.075 | inactive: -0.023 | inactive: 0.015 | inactive: 0.018 | inactive: 0.006 | inactive: 0.003 | inactive: -0.058 | inactive: -0.003 | inactive: 0.003 | inactive: 0.006 | inactive: 0.023 | inactive: 0.009 | inactive: 0.039 | inactive: 0.034 | inactive: 0.03 | inactive: 0.023 | inactive: 0.065 | inactive: 0.074 | inactive: 0.012 | inactive: 0.044 |
| SNW1 (UniProt Q13573) | inactive: 0.01 | inactive: 0.001 | inactive: -0.005 | inactive: -0.007 | inactive: 0.014 | inactive: 0.007 | inactive: -0.045 | inactive: 0.016 | inactive: -0.004 | inactive: 0.015 | inactive: 0.019 | inactive: 0.01 | inactive: -0.019 | inactive: 0.07 | inactive: -0.021 | inactive: 0 | inactive: 0.191 | inactive: -0.037 | inactive: 0.016 | inactive: -0.037 |
| SMG6 (UniProt Q86US8) | inactive: 0.071 | inactive: -0.061 | inactive: 0.034 | inactive: -0.016 | inactive: 0.012 | inactive: 0.074 | inactive: 0.006 | inactive: 0.004 | inactive: 0.047 | inactive: 0.059 | inactive: 0.12 | inactive: -0.006 | inactive: 0.014 | inactive: -0.139 | inactive: -0.031 | inactive: 0.038 | inactive: -0.16 | inactive: 0.141 | inactive: 0.036 | inactive: 0.098 |
